{
  "source": "paper PMC10941658",
  "biological_target": "T1, C-terminally HA-tagged MEIS2 (MEIS2b isoform) (mouse) (UniProt P97367)",
  "T1 sequence": "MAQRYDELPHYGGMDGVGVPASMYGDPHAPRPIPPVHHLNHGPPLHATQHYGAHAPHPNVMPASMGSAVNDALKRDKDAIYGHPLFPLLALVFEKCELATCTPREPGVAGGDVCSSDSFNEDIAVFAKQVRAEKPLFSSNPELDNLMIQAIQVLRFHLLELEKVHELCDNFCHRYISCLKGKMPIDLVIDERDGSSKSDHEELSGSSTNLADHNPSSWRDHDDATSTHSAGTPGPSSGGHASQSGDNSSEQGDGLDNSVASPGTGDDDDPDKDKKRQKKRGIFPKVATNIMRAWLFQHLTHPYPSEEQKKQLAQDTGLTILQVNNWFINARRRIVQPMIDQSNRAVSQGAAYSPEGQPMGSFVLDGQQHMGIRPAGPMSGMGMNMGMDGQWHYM",
  "assay": "co-IP; HEK 293T cells transfected at once with plasmids for Pbx1 and HA-tagged Meis2b; immunoprecipitation with anti-HA antibodies on Dynabeads in calpain lysis buffer (50 mM Tris-HCl pH 7.5, 100 mM NaCl, 0.5 mM DTT, 250 mM glucose, 5% glycerol, 1% Triton X-100), elution with HA peptide; immunoblot for HA and PBX1",
  "note": "No constants are given. Whether binding was seen depends on the method and setting. Binding seen in cells or lysates may run through a third protein. Some binding calls cover weakened binding; strength is not graded here. Tags and fused reporters may be left off the sequences shown.",
  "data": [
    {"binder": "PBX1 (protein, UniProt P41778 1-430) MDEQPRLMHSHAGVGMAGHPGLSQHLQDGAGGTEGEGGRKQDIGDILQQIMTITDQSLDEAQARKHALNCHRMKPALFNVLCEIKEKTVLSIRGAQEEEPTDPQLMRLDNMLLAEGVAGPEKGGGSAAAAAAAAASGGAGSDNSVEHSDYRAKLSQIRQIYHTELEKYEQACNEFTTHVMNLLREQSRTRPISPKEIERMVSIIHRKFSSIQMQLKQSTCEAVMILRSRFLDARRKRRNFNKQATEILNEYFYSHLSNPYPSEEAKEELAKKCGITVSQVSNWFGNKRIRYKKNIGKFQEEANIYAAKTAVTATNVSAHGSQANSPSTPNSAGSSSSFNMSNSGDLFMSVQSLNGDSYQGAQVGANVQSQVDTLRHVISQTGGYSDGLAASQMYSPQGISANGGWQDATTPSSVTSPTEGPGSVHSDTSN", "values": [
      {"measurement": "binding", "value": "binds"}
    ]}
  ]
}
